Whole data set: some 3,200 compounds, median “TSA(without NAD+) / Primary screening (TSA) / delta Tm (K)” near -0.07, cut for the highest 2% near 0.37. Some of the results follow.
What follows are molecules tested against NAD-dependent deacetylase Sirtuin 1 (human, UniProt Q96EB6) (assay: primary screen, delta tm). Details: 10 µM.
Design: single well (n = 1)
Procedure: A total of 3,192 compounds extracted from the proposed lists were first screened by thermal shift assay (TSA), which determined a melting temperature shift (ΔTm) of Sirtuin 1 upon the addition of a test compound at a concentration of 10 µM (n = 1) with primary hit criteria of ΔTm > 0.45 K or ΔTm < −1.5 K. Primary hits (48 compounds) were retested in the same assay at three concentrations (5, 10, 20 µM, n = 4) for hit confirmation and for dose-dependency check. Secondary hits (41 compounds) were checked their selectivity for Sirtuin 1 based on counterscreening on unrelated protein targets (bovine carbonic anhydrase (CA) and recombinant SH2 domain of hABL1 kinase (ABL1)) at three different concentrations (5, 10, 20 µM, n = 4), which yielded 38 hit compounds, hereafter referred to as TSA hits. The TSA screening above was conducted in the absence of NAD+.

Amino acid sequences for entries named in this document (tags omitted). Residues count along the entry.
UniProt Q96EB6, 2-747 limits assumed: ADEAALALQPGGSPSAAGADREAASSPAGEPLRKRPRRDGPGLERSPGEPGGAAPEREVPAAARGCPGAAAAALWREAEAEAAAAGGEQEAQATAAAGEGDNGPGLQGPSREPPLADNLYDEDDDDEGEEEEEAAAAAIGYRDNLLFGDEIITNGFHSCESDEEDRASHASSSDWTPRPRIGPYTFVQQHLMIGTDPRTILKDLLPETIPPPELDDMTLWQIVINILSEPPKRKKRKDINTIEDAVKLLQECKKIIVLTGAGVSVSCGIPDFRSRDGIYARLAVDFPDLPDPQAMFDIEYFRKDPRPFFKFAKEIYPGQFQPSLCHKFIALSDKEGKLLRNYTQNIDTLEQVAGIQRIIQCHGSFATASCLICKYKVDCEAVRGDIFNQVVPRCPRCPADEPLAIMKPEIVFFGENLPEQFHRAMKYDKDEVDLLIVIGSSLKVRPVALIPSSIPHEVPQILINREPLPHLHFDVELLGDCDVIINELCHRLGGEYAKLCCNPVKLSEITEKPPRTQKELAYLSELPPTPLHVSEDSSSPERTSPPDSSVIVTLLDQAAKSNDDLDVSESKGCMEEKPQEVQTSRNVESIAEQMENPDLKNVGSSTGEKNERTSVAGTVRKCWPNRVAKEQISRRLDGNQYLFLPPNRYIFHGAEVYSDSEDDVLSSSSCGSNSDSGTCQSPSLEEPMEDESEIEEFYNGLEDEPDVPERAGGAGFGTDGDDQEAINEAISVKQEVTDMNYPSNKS

In order of falling “TSA(without NAD+) / Primary screening (TSA) / delta Tm (K)” value:
1. CN(c1ccccc1)S(=O)(=O)c1cccc(C(=O)Nc2sccc2C(N)=O)c1  0.38 K
2. O=[N+]([O-])c1ccc(CSc2nc3ccccc3c3nc(CCc4c[nH]c5ccccc45)nn23)cc1  0.36 K
3. CCC(C)N (centres unmarked)  0.35 K
4. COc1ccc(S(=O)(=O)N2CCc3ccccc32)cc1C(=O)NCC12CC3CC(CC(C3)C1)C2  0.22 K
5. O=C(NCc1ccccc1O)c1ccc2c(c1)C(=O)c1ccccc1-2  0.16 K
6. Cc1ccccc1CC(=O)Nc1ccc(N2CCN(Cc3ccccc3)CC2)cc1  0.15 K
7. C=CCOc1cccc(C2C(C(=O)c3cccs3)=C(O)C(=O)N2CCCN2CCOCC2)c1 (centres unmarked)  0.06 K
8. CC(C)COc1ccc(C(=O)C2=C(O)C(=O)N(CCN3CCOCC3)C2c2ccc(F)cc2)cc1 (centres unmarked)  0.06 K
9. COc1cccc2cc(C(=O)C3=C(O)C(=O)N(CCN4CCOCC4)C3c3ccc(C)cc3)oc12 (centres unmarked)  0.06 K
10. Cc1ccc(-c2nnc(SCC(=O)NC(C)C(C)C)n2N)cc1 (centres unmarked)  0.05 K
11. O=C(O)c1cccc(C(=O)O)n1  0.02 K
12. Cc1nc(-c2ccc(NC(=O)[C@H](C)NC(=O)OCc3ccccc3)cc2)cs1  0.02 K
13. CNC(=O)c1c(-c2ccccc2)n(C)c2ccccc12  0.02 K
14. Cc1ccc(C2(c3ccc(C)cc3)NC(=O)N(CC(=O)NC34CC5CC(CC(C5)C3)C4)C2=O)cc1  -0.01 K
15. C=CCOc1ccc(/C=C/C(=O)NC(Cc2ccccc2)c2nc3ccccc3[nH]2)cc1 (centres unmarked)  -0.02 K
16. COc1ccc(CCNCc2ccc(OCc3ccccc3)cc2)cc1  -0.03 K
17. CN(c1cccc(Cl)c1)S(=O)(=O)c1cccc(C(=O)N2CCc3[nH]c4ccccc4c3C2)c1  -0.03 K
18. O=C(Nc1cccc2ccccc12)N1CC=C(c2ccccc2)CC1  -0.03 K
19. NC(=O)CC1CCN(c2ncnc3cc(Cl)ccc23)CC1  -0.05 K
20. Cc1ccc(-c2csc(NC(=O)c3ccnc4c(C(N)=O)cnn34)n2)c(C)c1  -0.05 K
21. Cn1cc(S(=O)(=O)N2CCN(C(=O)CCNC(=O)c3ccsc3)CC2)cc1C(N)=O  -0.07 K
22. Cc1nc2cc(C(=O)O)ccc2[nH]1  -0.07 K
23. COC(=O)CC(C)(NC(=O)Nc1ccc(SC(C)(C)C)cc1C)c1ccncc1 (centres unmarked)  -0.07 K
24. CCCNC(=O)c1ccc2[nH]c(C)c(C)c2c1  -0.08 K
25. Cc1cccc(NC(=O)CCNC(=O)C2=CCCCCC2)n1  -0.08 K
26. O=S1(=O)CC(O)C(N2CCN(c3ncnc4c3oc3ccccc34)CC2)C1 (centres unmarked)  -0.08 K
27. COc1cccc(C(=O)C2=C(O)C(=O)N(CCCN3CCOCC3)C2c2cccc([N+](=O)[O-])c2)c1 (centres unmarked)  -0.08 K
28. O=C(NC(Cc1ccccc1)C(=O)N1CCCCCCC1)c1ccccc1 (centres unmarked)  -0.11 K
29. O=C(Cc1csc(-c2ccco2)n1)N(C/C=C/c1ccccc1)c1ccc2c(c1)OCCO2  -0.12 K
30. O=C(O)CC(O)C(=O)O (centres unmarked)  -0.12 K
31. CCOc1ccc(C2C(C(=O)c3ccco3)=C(O)C(=O)N2CCCN2CCOCC2)cc1OC (centres unmarked)  -0.12 K
32. CCOc1ccc(NC(=O)COc2ccc(C(=O)NC34CC5CC(CC(C5)C3)C4)cc2OC)cc1  -0.12 K
33. CN(C)C(CNC(=O)C1CCCc2ccccc21)c1ccccc1 (centres unmarked)  -0.13 K
34. O=C(Nc1ccc(F)cc1F)C(F)C(F)(F)F (centres unmarked)  -0.14 K
35. O=c1[nH]c(=O)c2cc(S(=O)(=O)N3CCc4ccccc4C3Cc3ccccc3)ccc2[nH]1 (centres unmarked)  -0.17 K
36. O=C(CSc1nnc(NCc2ccco2)s1)N(c1ccccc1)C1CCS(=O)(=O)C1 (centres unmarked)  -0.17 K
37. CCC(O)(CC)CN  -0.18 K
38. CC(C)(N)CCCN  -0.22 K
39. CC(CS(C)=O)C(=O)O (centres unmarked)  -0.22 K
40. CN(C)C(=O)c1ccc(F)cc1Br  -0.23 K
41. NCCc1nc2cc(C(=O)O)ccc2[nH]1  -0.23 K
42. CC1CCCCC1NC(=O)CN1C(=O)NC2(CCc3ccccc3C2)C1=O (centres unmarked)  -0.23 K
43. CN(c1ccc(C(N)=O)cc1)S(=O)(=O)c1ccc(F)c(C(F)(F)F)c1  -0.24 K
44. Cc1cocc1CCCO  -0.24 K
45. CONC(=O)c1c(-c2ccccc2)n(C)c2ccccc12  -0.24 K
46. CNc1ncc(C(F)(F)F)cc1Cl  -0.28 K
47. Cc1cnc(N2CCC(Oc3ccnc(C(N)=O)c3)CC2)s1  -0.32 K

Reference: PMC6925144, “A prospective compound screening contest identified broader inhibitors for Sirtuin 1” (Scientific Reports, 2019)
